The subject of assay [1] is HeLa K (ENP1 immunofluorescence, +LMB). Description: fraction of cells with nucleolar or nucleolar/nucleoplasmic ENP1 signal (MainHitrate); higher = more cells with nucleolar/nuclear readout signal (for ENP1 -LMB: less RNAPI inhibition; for +LMB ENP1 and RP reporters: stronger nuclear/nucleolar retention, i.e. ribosome biogenesis defect). The following applies: concentration: 1 µM; treatment time: 6 h; ENP1 +LMB; leptomycin B: 20 nM, last 1.5 h.

For assay [2], the system named is HeLa K (ENP1 immunofluorescence, no LMB). The assay is described as above. The following applies: concentration: 1 µM; treatment time: 6 h; ENP1 -LMB; leptomycin B: none.
The next assay has as its system HeLa RPS2-YFP reporter. Description: fraction of reporter-positive cells with nuclear (nucleolar or nucleolar/nucleoplasmic) RPS2-YFP (MainHitrate); higher = more cells with nucleolar/nuclear readout signal (for ENP1 -LMB: less RNAPI inhibition; for +LMB ENP1 and RP reporters: stronger nuclear/nucleolar retention, i.e. ribosome biogenesis defect). The following applies: concentration: 1 µM; treatment time: 6 h.

Another assay deals with HeLa RPL29-GFP reporter. Kind of assay: fraction of reporter-positive cells with nuclear (nucleolar or nucleolar/nucleoplasmic) RPL29-GFP (MainHitrate); higher = more cells with nucleolar/nuclear readout signal (for ENP1 -LMB: less RNAPI inhibition; for +LMB ENP1 and RP reporters: stronger nuclear/nucleolar retention, i.e. ribosome biogenesis defect). The following applies: concentration: 1 µM; treatment time: 6 h.

This is an account of results in the supplement of paper PMC12542422.

Structures can show the parent of a compound that is named as a salt. ± gives the standard deviation of the averaged measurements. This is one part of the list. Values are raw readings; no control value is given beside them.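 Ribosome-assembly readouts in HeLa cells were imaged via ENP1 staining, with or without export block, or inducible tagged ribosomal protein reporters. Machine learning classified per-cell signal location versus solvent (DMSO) controls. Hits surpassed the DMSO false-positive mean by five standard deviations and were visually confirmed; three biological replicates.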

For the compound `Nc1nc(N)nc(-c2cc(Cl)ccc2Cl)n1` [Irsogladine], the fraction in assay [1] came out at 0.183 ± 0.29; in assay [2], 0.989 ± 0.018. The “fraction of reporter-positive cells with nuclear” value (“fraction … with nuclear” below) in the assay with HeLa RPS2-YFP reporter worked out at 0.114 ± 0.079; with HeLa RPL29-GFP reporter, 0.224 ± 0.07.

As to `COc1ccc(-c2ccc3cc(C(=O)O)ccc3c2)cc1C12CC3CC(CC(C3)C1)C2` [Adapalene], the figures for the fraction in assay [1] and in assay [2] were 0.113 ± 0.14 and 0.9981 ± 0.0034, respectively. Also, the “fraction … with nuclear” value in the assay on HeLa RPS2-YFP reporter was 0.119 ± 0.088; in the assay with HeLa RPL29-GFP reporter, 0.225 ± 0.069.

In the case of `C[C@H](CCC(=O)O)[C@H]1CC[C@H]2[C@@H]3[C@@H](O)C[C@@H]4C[C@H](O)CC[C@]4(C)[C@H]3CC[C@]12C` [Ursodiol (Actigal Urso)], the fraction in assay [1] is 0.139 ± 0.14; in assay [2], 0.9988 ± 0.002. Besides, the “fraction … with nuclear” value in the assay with HeLa RPS2-YFP reporter is 0.11 ± 0.06; in the assay with HeLa RPL29-GFP reporter it was 0.203 ± 0.089.

For `NS(=O)(=O)c1cc(C(=O)O)c(NCc2ccco2)cc1Cl` [Furosemide (Lasix)], the results for the fraction in assay [1] and in assay [2] were 0.0796 ± 0.08 and 0.9944 ± 0.0097, respectively. The figures for the “fraction … with nuclear” value with HeLa RPS2-YFP reporter and in the assay on HeLa RPL29-GFP reporter were 0.0855 ± 0.06 and 0.212 ± 0.047, respectively.

Take `c1ccc2c(CC3=NCCN3)cccc2c1` [Naphazoline hydrochloride (Naphcon)]: the fraction is 0.118 ± 0.17 in assay [1] and 0.989 ± 0.019 in assay [2]. Also, the results for the “fraction … with nuclear” value with HeLa RPS2-YFP reporter and in the assay with HeLa RPL29-GFP reporter were 0.109 ± 0.07 and 0.234 ± 0.08, respectively.

With `O=c1oc2cc(O)ccc2s1` [Tioxolone], the fraction was found to be 0.103 ± 0.14 in assay [1] and 0.987 ± 0.023 in assay [2]. Also, the “fraction … with nuclear” value in the assay with HeLa RPS2-YFP reporter was 0.107 ± 0.083; with HeLa RPL29-GFP reporter, 0.232 ± 0.064.

Regarding `O=P(O)(O)C(Cl)(Cl)P(=O)(O)O` [Clodronate Disodium], the fraction in assay [1] was 0.0619 ± 0.088; in assay [2], 0.978 ± 0.038. The “fraction … with nuclear” value with HeLa RPS2-YFP reporter is 0.128 ± 0.11; in the assay with HeLa RPL29-GFP reporter, 0.199 ± 0.1.

As for `CN(C)CCN(Cc1ccccc1)c1ccccn1` [Tripelennamine HCl], the values for the fraction in assay [1] and in assay [2] were 0.0652 ± 0.092 and 0.979 ± 0.037, respectively. Moreover, the “fraction … with nuclear” value is 0.11 ± 0.069 in the assay with HeLa RPS2-YFP reporter and 0.237 ± 0.049 with HeLa RPL29-GFP reporter.

For the compound `Nc1nccs1` [Aminothiazole], the figures for the fraction in assay [1] and in assay [2] were 0.106 ± 0.15 and 0.989 ± 0.018, respectively. Further, the entries for the “fraction … with nuclear” value in the assay with HeLa RPS2-YFP reporter and in the assay with HeLa RPL29-GFP reporter were 0.137 ± 0.11 and 0.212 ± 0.088, respectively.

On to `CC1(C)Cc2c(-c3ccccc3)c(-c3ccc(Cl)cc3)c(CC(=O)O)n2C1` [Licofelone], for which the fraction in assay [1] amounted to 0.133 ± 0.2; in assay [2] it was 0.992 ± 0.013. The “fraction … with nuclear” value stood at 0.127 ± 0.089 in the assay on HeLa RPS2-YFP reporter and 0.237 ± 0.09 with HeLa RPL29-GFP reporter.

Regarding `NC(=O)c1ncn([C@@H]2O[C@H](CO)[C@@H](O)[C@H]2O)c1O` [Mizoribine (Bredinin)], the fraction was found to be 0.12 ± 0.14 in assay [1] and 0.9985 ± 0.0026 in assay [2]. The “fraction … with nuclear” value in the assay on HeLa RPS2-YFP reporter was 0.108 ± 0.05; in the assay on HeLa RPL29-GFP reporter, 0.212 ± 0.067.

For the compound `Cc1c(Cl)cccc1Nc1ccccc1C(=O)O` [Tolfenamic acid], the fraction in assay [1] was determined as 0.0403 ± 0.044; in assay [2], 0.9966 ± 0.0058. Also, the “fraction … with nuclear” value in the assay with HeLa RPS2-YFP reporter amounted to 0.0837 ± 0.056; in the assay with HeLa RPL29-GFP reporter, 0.236 ± 0.067.

For `Cc1ccc(S(=O)(=O)NC(=O)NN2CCCCCC2)cc1` [Tolazamide], the fraction amounted to 0.111 ± 0.13 in assay [1] and 0.917 ± 0.14 in assay [2]. In addition, the “fraction … with nuclear” value stood at 0.17 ± 0.16 in the assay with HeLa RPS2-YFP reporter and 0.301 ± 0.23 in the assay with HeLa RPL29-GFP reporter.

For `O=C1c2cccc3c2[C@H](CCC3)CN1[C@@H]1CN2CCC1CC2` [Palonosetron HCl], the figures for the fraction in assay [1] and in assay [2] were 0.0874 ± 0.12 and 0.975 ± 0.043, respectively. Moreover, the results for the “fraction … with nuclear” value in the assay on HeLa RPS2-YFP reporter and in the assay with HeLa RPL29-GFP reporter were 0.12 ± 0.091 and 0.211 ± 0.067, respectively.

On to `Cc1cccc(C)c1OCC(C)N` (stereo not drawn) [Mexiletine HCl], for which the fraction in assay [1] came to 0.0697 ± 0.1; in assay [2], 0.986 ± 0.025. Moreover, the “fraction … with nuclear” value in the assay on HeLa RPS2-YFP reporter came to 0.123 ± 0.078; in the assay with HeLa RPL29-GFP reporter it was 0.209 ± 0.062.

As to `Cl.N=C(N)NCCC[C@H](N)C(=O)O` [L-Arginine HCl], the fraction in assay [1] stood at 0.083 ± 0.1; in assay [2] it was 0.987 ± 0.022. For the same compound, the “fraction … with nuclear” value with HeLa RPS2-YFP reporter is 0.134 ± 0.093; in the assay with HeLa RPL29-GFP reporter, 0.21 ± 0.049.

Regarding `c1ccc2c(c1)CCCC2C1=NCCN1` (stereo not drawn) [tetrahydrozoline hydrochloride], the fraction was 0.0874 ± 0.12 in assay [1] and 0.991 ± 0.016 in assay [2]. The “fraction … with nuclear” value was found to be 0.115 ± 0.12 in the assay with HeLa RPS2-YFP reporter and 0.186 ± 0.043 with HeLa RPL29-GFP reporter.

Consider `CN1CCN(CCCN2c3ccccc3Sc3ccc(C(F)(F)F)cc32)CC1` [Trifluoperazine 2HCl], for which the fraction was found to be 0.0603 ± 0.079 in assay [1] and 0.99 ± 0.018 in assay [2]. For the same compound, the “fraction … with nuclear” value was 0.123 ± 0.098 with HeLa RPS2-YFP reporter and 0.216 ± 0.074 in the assay on HeLa RPL29-GFP reporter.

Regarding `Clc1ccc(C(Cn2ccnc2)OCc2csc3c(Cl)cccc23)c(Cl)c1` (stereo not drawn) [Sertaconazole nitrate], the fraction in assay [1] amounted to 0.0685 ± 0.093; in assay [2], 0.987 ± 0.023. Also, the “fraction … with nuclear” value with HeLa RPS2-YFP reporter worked out at 0.13 ± 0.071; in the assay with HeLa RPL29-GFP reporter, 0.206 ± 0.055.

On to `CC1CCc2cc(F)cc3c(=O)c(C(=O)O)cn1c23` (stereo not drawn) [Flumequine], for which the fraction in assay [1] came to 0.131 ± 0.2; in assay [2], 0.978 ± 0.039. For the same compound, the “fraction … with nuclear” value was determined as 0.11 ± 0.091 in the assay with HeLa RPS2-YFP reporter and 0.206 ± 0.068 in the assay on HeLa RPL29-GFP reporter.

Turning to `CCOc1ccc2ccccc2c1C(=O)N[C@@H]1C(=O)N2[C@@H]1SC(C)(C)[C@@H]2C(=O)O` [nafcillin sodium monohydrate], the fraction is 0.076 ± 0.093 in assay [1] and 0.994 ± 0.011 in assay [2]. Besides, the “fraction … with nuclear” value with HeLa RPS2-YFP reporter was 0.122 ± 0.098; in the assay on HeLa RPL29-GFP reporter, 0.227 ± 0.045.

`CC(=O)NC[C@H]1CN(c2ccc(N3CCOCC3)c(F)c2)C(=O)O1` [Linezolid (Zyvox)]: the fraction in assay [1] was 0.106 ± 0.12; in assay [2] it was 0.9985 ± 0.0026. Moreover, the “fraction … with nuclear” value amounted to 0.106 ± 0.052 in the assay with HeLa RPS2-YFP reporter and 0.204 ± 0.077 with HeLa RPL29-GFP reporter.

In the case of `CCCC(CCC)C(=O)O` [Valproic acid sodium salt (Sodium valproate)], the fraction stood at 0.0948 ± 0.065 in assay [1] and 0.9976 ± 0.0041 in assay [2]. Besides, the figures for the “fraction … with nuclear” value in the assay with HeLa RPS2-YFP reporter and in the assay with HeLa RPL29-GFP reporter were 0.12 ± 0.067 and 0.2 ± 0.069, respectively.

For the compound `CCC1=C(C)CN(C(=O)NCCc2ccc(S(=O)(=O)NC(=O)N[C@H]3CC[C@H](C)CC3)cc2)C1=O` [Glimepiride], the fraction in assay [1] was 0.0788 ± 0.058; in assay [2], 0.9977 ± 0.004. The “fraction … with nuclear” value in the assay with HeLa RPS2-YFP reporter turned out to be 0.0606 ± 0.014; in the assay on HeLa RPL29-GFP reporter it was 0.207 ± 0.037.

Regarding `CCN(CC)CC(=O)Nc1c(C)cccc1C` [Lidocaine (Alphacaine)], the fraction worked out at 0.106 ± 0.077 in assay [1] and 0.9974 ± 0.0044 in assay [2]. The “fraction … with nuclear” value in the assay with HeLa RPS2-YFP reporter turned out to be 0.109 ± 0.093; in the assay with HeLa RPL29-GFP reporter it was 0.23 ± 0.074.

Take `C#Cc1cccc(Nc2ncnc3cc(OCCOC)c(OCCO)cc23)c1` [OSI-420 (Desmethyl Erlotinib)]: the fraction in assay [1] came to 0.146 ± 0.21; in assay [2] it was 0.992 ± 0.014. The “fraction … with nuclear” value in the assay on HeLa RPS2-YFP reporter worked out at 0.119 ± 0.084; in the assay with HeLa RPL29-GFP reporter, 0.25 ± 0.068.

For `CC#C[C@]1(O)CC[C@H]2[C@@H]3CCC4=CC(=O)CCC4=C3[C@@H](c3ccc(N(C)C)cc3)C[C@@]21C` [Mifepristone (Mifeprex)], the fraction came out at 0.0618 ± 0.079 in assay [1] and 0.986 ± 0.025 in assay [2]. Further, the “fraction … with nuclear” value with HeLa RPS2-YFP reporter was determined as 0.0682 ± 0.049; in the assay on HeLa RPL29-GFP reporter, 0.23 ± 0.043.
